Laboratory results taken from paper PMC13311996.
These are yes or no findings as the source states them, for the method shown. In cells and extracts the contact can be indirect. Some results given as binding are weak or reduced against the parent protein; the word gives no strength.

Protein sequences, listed by entry. Tags and fused reporters are not part of them.
UniProt P01375: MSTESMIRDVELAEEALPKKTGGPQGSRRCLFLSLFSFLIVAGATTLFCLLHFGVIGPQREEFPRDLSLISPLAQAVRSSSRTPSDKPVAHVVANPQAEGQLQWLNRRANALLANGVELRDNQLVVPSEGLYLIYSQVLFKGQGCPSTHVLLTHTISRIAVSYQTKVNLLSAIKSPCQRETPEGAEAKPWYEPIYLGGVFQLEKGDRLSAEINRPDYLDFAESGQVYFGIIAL

Target: TNF (UniProt P01375)
Assay: co-IP; 2000 μg protein lysate (500 μL) with primary antibody (anti-GFP, anti-Flag) overnight at 4°, protein A/G agarose beads, washed 6 times with lysis buffer, western blot; cells and bait not stated

binding: binds
B1: DCAF7 (protein, UniProt P61962 1-342)
chain: MSLHGKRKEIYKYEAPWTVYAMNWSVRPDKRFRLALGSFVEEYNNKVQLVGLDEESSEFICRNTFDHPYPTTKLMWIPDTKGVYPDLLATSGDYLRVWRVGETETRLECLLNNNKNSDFCAPLTSFDWNEVDPYLLGTSSIDTTCTIWGLETGQVLGRVNLVSGHVKTQLIAHDKEVYDIAFSRAGGGRDMFASVGADGSVRMFDLRHLEHSTIIYEDPQHHPLLRLCWNKQDPNYLATMAMDGMEVVILDVRVPCTPVARLNNHRACVNGIAWAPHSSCHICTAADDHQALIWDIQQMPRAIEDPILAYTAEGEINNVQWASTQPDWIAICYNNCLEILRV
